Results are given in words; binding and its absence hold for the method and conditions named. In cells and extracts the contact can be indirect. Some binding calls cover weakened binding; strength is not graded here.
Biological target: voltage-dependent anion-selective channel protein 1 (VDAC1), endogenous in primary cortical neurons (rat (endogenous in primary cortical neurons)) (UniProt Q9Z2L0)
Assay: co-IP; primary neurons stimulated with 10 µM OxyHb for 12 h, then vehicle, EPAC-1 inhibitor ESI09 (10 µM), activator 8CPT (10 µM) or celastrol for 24 h; antibody (1 µg) overnight at 4 °C, protein A/G agarose beads, western blot; which protein was precipitated is not told

Chains of the proteins cited; added tags and fusions are not shown.
UniProt Q9Z2L0: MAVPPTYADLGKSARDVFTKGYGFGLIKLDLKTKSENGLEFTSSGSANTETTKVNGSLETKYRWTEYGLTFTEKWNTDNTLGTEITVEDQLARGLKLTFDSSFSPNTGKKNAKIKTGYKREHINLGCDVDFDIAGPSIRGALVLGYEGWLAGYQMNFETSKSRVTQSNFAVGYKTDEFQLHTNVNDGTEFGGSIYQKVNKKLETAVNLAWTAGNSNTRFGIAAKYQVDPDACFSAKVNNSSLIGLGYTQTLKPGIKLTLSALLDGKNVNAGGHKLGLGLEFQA
UniProt Q9Z1C8: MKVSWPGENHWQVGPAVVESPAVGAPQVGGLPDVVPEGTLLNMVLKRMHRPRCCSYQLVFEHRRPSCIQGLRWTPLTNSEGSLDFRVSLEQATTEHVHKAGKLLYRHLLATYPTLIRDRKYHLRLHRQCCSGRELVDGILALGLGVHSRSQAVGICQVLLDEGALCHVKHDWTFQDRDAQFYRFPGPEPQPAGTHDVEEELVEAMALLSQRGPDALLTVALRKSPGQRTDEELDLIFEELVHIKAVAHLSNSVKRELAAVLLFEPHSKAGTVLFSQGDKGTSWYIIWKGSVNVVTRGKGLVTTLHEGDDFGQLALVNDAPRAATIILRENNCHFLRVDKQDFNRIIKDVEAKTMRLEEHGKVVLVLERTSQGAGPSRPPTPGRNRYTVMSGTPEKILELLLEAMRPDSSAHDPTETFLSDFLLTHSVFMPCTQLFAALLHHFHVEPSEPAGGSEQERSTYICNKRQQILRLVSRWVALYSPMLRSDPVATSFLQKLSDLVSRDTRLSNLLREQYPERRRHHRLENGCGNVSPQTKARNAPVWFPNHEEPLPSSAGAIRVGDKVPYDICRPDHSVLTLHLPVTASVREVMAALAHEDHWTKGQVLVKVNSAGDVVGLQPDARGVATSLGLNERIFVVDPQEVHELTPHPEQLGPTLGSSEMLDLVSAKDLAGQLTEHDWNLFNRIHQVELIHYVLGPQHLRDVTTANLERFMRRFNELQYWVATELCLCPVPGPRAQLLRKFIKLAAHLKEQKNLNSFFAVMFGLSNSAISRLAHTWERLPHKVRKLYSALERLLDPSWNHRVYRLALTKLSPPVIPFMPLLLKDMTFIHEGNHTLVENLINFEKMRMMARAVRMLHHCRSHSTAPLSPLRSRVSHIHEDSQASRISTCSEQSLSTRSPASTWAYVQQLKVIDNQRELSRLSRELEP

With “cAMP-activated exchange protein-1 (EPAC-1), endogenous in primary cortical neurons (from UniProt Q9Z1C8 1-926)” the binding was “binds”.

Reference: PMC11109624, “Celastrol Ameliorates Neuronal Mitochondrial Dysfunction Induced by Intracerebral Hemorrhage via Targeting cAMP‐Activated Exchange Protein‐1” (Advanced Science, 2024)
